Data as given in PubChem BioAssay AID1259254 (NCATS, 2017).
Assay: 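Genome-wide screen for genes that prevent DNA re-replication in cancer cells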 (primary screen). System: human HCT116 colorectal cancer cells. Knock-down reagent: single siRNA against human genes. Timing: 3 days. Measured: 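Imaged Hoechst DNA stain sorts each cell into a cycle phase by DNA amount; per plate, G2 fraction set to 0% for non-targeting and 100% for GMNN siRNA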. Scale: G2 robust z-score and G2 cells, % of GMNN control: higher = more G2 cells, more excess DNA replication. Active means: 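Active siRNAs have a G2 robust z of 5 or more median absolute deviations over the median, which in these data means about 38% or higher of GMNN control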.
Shown is an unselected part of about 59,000 deposited reagents. Of all reagents, about 1,550 (2.6%) got an active call. 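G2 share is only a proxy for re-replication; each gene was hit by three separate siRNAs, and active genes were retested.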 A number with no mark means an inactive call. Reagents against one gene are numbered here. Not all columns of the deposit are shown. Not given: the amount of reagent.

Against MAP4K5 #1 the deposit lists G2 robust z-score -0.887; G2 cells, % of GMNN control -3.27.
Depletion of MAP4K5 #2 gave: G2 robust z-score 0.23; G2 cells, % of GMNN control 4.59.
MAP4K5 #3 gave G2 robust z-score -1.06; G2 cells, % of GMNN control -4.5.
Knock-down of ADAM9 #1 gave: G2 robust z-score -0.72; G2 cells, % of GMNN control -2.1.
ADAM9 #2 gave G2 robust z-score 0.245; G2 cells, % of GMNN control 4.69.
For ADAM9 #3, the values are G2 robust z-score 5.34 (active); G2 cells, % of GMNN control 40.6.

2 neighbouring reagents from above, for reference:
ADAM9 #1 | G2 robust z-score = -0.72; G2 cells, % of GMNN control = -2.1
ADAM9 #2 | G2 robust z-score = 0.245; G2 cells, % of GMNN control = 4.69

Further entries follow:
Against CYP2C8 #1, the entry reads G2 robust z-score 0.0527; G2 cells, % of GMNN control 3.34.
Against CYP2C8 #2, the entry reads G2 robust z-score -0.866; G2 cells, % of GMNN control -3.13.
Silencing of CYP2C8 #3 resulted in: G2 robust z-score -1.32; G2 cells, % of GMNN control -6.34.
Knock-down of ZNF282 #1 came out at: G2 robust z-score -1.07; G2 cells, % of GMNN control -4.57.
With knock-down of ZNF282 #2 the results were G2 robust z-score -0.916; G2 cells, % of GMNN control -3.48.
For ZNF282 #3, the values are G2 robust z-score 1.68; G2 cells, % of GMNN control 14.8.
Against CREB3L3 #1 the deposit lists G2 robust z-score -0.409; G2 cells, % of GMNN control 0.0917.
After knock-down of CREB3L3 #2, the screen gave G2 robust z-score -0.944; G2 cells, % of GMNN control -3.67.
For CREB3L3 #3, the values are G2 robust z-score -1.15; G2 cells, % of GMNN control -5.14.
Silencing of RGS22 #1 gave: G2 robust z-score -0.3; G2 cells, % of GMNN control 0.856.
Against RGS22 #2, the values are G2 robust z-score 0.465; G2 cells, % of GMNN control 6.24.
For RGS22 #3 the deposit lists G2 robust z-score 1.03; G2 cells, % of GMNN control 10.2.
